# Counter-ions that a name gives are not always drawn. This is one part of the list. Hit calls seldom repeat between salt and free forms of one compound.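 In K562 cells expressing nanoluciferase-fused kinases, luminescence was recorded at 4 h intervals between 2 and 18 h, normalized as percent of control with DMSO at 100% and a positive control at 0%. A significant (2 sigma) signal drop marks a time point as decreased. The authors' rule for a hit is not shown and takes in more than the number of time points.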
# Protein sequences, listed by entry. Tags and fused reporters are not part of them. Lines headed by an entry give the natural chain unless they say otherwise; changes in a name come on top.
# UniProt P07947, whole entry, looked up: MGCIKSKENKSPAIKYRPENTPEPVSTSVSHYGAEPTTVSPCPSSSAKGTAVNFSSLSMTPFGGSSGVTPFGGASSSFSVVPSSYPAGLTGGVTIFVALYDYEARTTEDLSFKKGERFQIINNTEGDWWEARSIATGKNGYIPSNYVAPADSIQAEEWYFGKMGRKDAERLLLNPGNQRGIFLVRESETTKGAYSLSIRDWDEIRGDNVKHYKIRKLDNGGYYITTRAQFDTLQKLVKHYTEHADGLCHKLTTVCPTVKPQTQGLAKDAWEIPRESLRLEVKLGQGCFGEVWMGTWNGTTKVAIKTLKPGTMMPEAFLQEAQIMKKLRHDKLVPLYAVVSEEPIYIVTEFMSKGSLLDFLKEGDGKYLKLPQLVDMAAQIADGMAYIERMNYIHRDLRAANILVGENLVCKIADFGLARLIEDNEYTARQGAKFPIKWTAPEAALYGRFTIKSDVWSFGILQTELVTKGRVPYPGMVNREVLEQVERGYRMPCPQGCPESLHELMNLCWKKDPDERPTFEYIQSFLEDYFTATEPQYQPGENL
# UniProt P43403: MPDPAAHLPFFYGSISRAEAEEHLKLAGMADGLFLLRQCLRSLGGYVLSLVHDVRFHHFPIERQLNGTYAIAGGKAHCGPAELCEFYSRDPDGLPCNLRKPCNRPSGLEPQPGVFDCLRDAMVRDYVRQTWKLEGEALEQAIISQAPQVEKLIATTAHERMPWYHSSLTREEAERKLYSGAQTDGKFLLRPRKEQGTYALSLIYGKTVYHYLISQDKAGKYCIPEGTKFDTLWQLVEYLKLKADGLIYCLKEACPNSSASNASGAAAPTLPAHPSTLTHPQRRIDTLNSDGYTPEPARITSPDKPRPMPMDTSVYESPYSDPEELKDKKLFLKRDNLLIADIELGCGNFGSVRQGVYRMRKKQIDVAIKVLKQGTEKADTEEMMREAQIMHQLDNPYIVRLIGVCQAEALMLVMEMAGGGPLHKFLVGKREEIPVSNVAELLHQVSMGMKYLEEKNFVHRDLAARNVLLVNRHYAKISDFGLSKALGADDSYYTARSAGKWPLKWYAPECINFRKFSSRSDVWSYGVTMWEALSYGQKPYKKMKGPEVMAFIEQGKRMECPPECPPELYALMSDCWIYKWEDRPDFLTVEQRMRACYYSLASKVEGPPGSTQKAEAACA
# UniProt P11802: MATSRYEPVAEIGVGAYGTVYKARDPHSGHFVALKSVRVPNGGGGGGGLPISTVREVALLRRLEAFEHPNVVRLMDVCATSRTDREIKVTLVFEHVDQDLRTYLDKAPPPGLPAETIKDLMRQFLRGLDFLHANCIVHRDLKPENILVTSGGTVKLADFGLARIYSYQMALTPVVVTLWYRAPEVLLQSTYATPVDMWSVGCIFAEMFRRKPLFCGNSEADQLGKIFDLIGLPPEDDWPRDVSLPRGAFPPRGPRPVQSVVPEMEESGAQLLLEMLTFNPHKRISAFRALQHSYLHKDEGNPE
# UniProt P50613: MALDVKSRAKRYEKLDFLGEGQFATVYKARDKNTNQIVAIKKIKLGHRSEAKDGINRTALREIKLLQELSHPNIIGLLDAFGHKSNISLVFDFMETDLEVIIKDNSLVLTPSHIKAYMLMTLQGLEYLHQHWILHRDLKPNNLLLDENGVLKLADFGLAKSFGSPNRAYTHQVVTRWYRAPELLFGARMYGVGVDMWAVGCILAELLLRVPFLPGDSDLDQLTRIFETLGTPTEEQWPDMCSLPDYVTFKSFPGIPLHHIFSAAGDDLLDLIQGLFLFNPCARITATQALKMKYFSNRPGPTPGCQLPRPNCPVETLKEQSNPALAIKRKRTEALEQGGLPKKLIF
# UniProt P50750, whole entry: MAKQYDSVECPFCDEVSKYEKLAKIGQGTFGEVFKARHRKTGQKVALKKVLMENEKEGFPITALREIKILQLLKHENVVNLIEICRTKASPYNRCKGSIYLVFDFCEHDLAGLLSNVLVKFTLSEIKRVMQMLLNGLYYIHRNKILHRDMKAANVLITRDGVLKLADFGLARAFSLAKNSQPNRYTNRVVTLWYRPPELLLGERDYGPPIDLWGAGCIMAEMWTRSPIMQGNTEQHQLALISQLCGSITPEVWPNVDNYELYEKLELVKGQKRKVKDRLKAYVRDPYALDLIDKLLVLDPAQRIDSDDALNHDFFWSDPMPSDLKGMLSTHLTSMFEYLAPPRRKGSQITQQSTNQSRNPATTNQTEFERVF
# Experiments:
# Settings in all cases: K562; 2-18 h
# YES1 = YES1 (UniProt P07947); assay: number of time points (of 5) at which kinase-Nluc abundance scored as decreased, DMSO-normalised (count); higher = more persistent destabilization
# ZAK = ZAK (UniProt Q9NYL2); assay: as above
# ZAP70 = ZAP70 (UniProt P43403); assay: as above
# CDK4 = CDK4 (UniProt P11802); assay: number of time points (of 4; 2 h point missing) at which kinase-Nluc abundance scored as decreased, DMSO-normalised (count); higher = more persistent destabilization
# CDK7 = CDK7 (UniProt P50613); assay: as above
# CDK9 = CDK9 (UniProt P50750); assay: as above
Structure (SMILES),number of time points (YES1),number of time points (ZAK),number of time points (ZAP70),number of time points (CDK4),number of time points (CDK7),number of time points (CDK9)
O=C(Nc1cccnc1)c1cc(C(=O)c2c(F)cccc2Br)c[nH]1 (10 µM),0,0,0,0,0,0
Nc1ncnc2c1ncn2[C@@H]1O[C@H](CO)C[C@H]1O [Cordycepin] (10 µM),0,0,0,0,0,0
CC1CCc2nc(N)c(C#N)c(-c3cccnc3)c2C1 (stereo unspecified) (10 µM),0,0,0,0,0,0
CCN(CC)c1ccc2cc(C(=O)N3CCN(C(=O)C4=Cc5c(Br)cccc5S4(=O)=O)CC3)c(=O)oc2c1 (2 µM),0,0,0,0,0,0
CC[C@@]1(c2ccccc2)C2=C(CC(C)(C)CC2=O)Nc2[nH]ncc21 (10 µM),0,0,0,0,0,0
NCCN1CCN(C/C=C/C(=O)N2CCC[C@@H](n3nc(-c4ccc(Oc5ccccc5)cc4)c4c(N)ncnc43)C2)CC1 [Ibrutinib-MPEA] (10 µM),0,0,0,0,0,0
COc1ccc([C@@H]2CC(=O)c3c(O)cc(O)cc3O2)cc1O [Hesperetin] (10 µM),0,0,0,0,0,0
Cn1cnc(-c2cc3nccc(Oc4ccc(NC(=S)NC(=O)Cc5ccccc5)cc4F)c3s2)c1 [MGCD-265 analog] (10 µM),2,0,0,0,1,0
C=C(CCC=C(C)C)[C@H]1CC[C@]2(C)[C@@H]1[C@H](O)C[C@@H]1[C@@]3(C)CC[C@H](O[C@@H]4O[C@H](CO)[C@@H](O)[C@H](O)[C@H]4O[C@@H]4O[C@H](CO)[C@@H](O)[C@H](O)[C@H]4O)C(C)(C)[C@@H]3CC[C@]12C [Ginsenoside Rk1] (10 µM),0,0,0,0,0,0
Cc1ccc(Nc2cc(-c3cccc(N4C(=O)c5ccccc5C4=O)c3)ncn2)cc1NS(C)(=O)=O (10 µM),1,0,0,0,0,0
CCOc1ccc(C(=O)Nc2ncc([N+](=O)[O-])s2)cc1 (10 µM),0,0,0,0,1,0
OC(COc1ccc(C(F)(F)F)cc1)CN(Cc1ccccc1)Cc1ccccc1 (stereo unspecified) (2.5 µM),0,0,0,0,0,0
CCn1c(C(=O)N(C2CC2)C2CC2)cc2c3c(ncn3C)c(Nc3cc(C)n(C)n3)nc21 (10 µM),0,0,0,0,0,0
CC(c1ccc(-c2cnc3c(-c4ccc(S(N)(=O)=O)c5ccccc45)cnn3c2)cc1)N1CCCC1 (stereo unspecified) (2.5 µM),0,0,0,0,0,0
"O=C(/C=C/c1ccc(O)c(O)c1)OC1CC(OC(=O)/C=C/c2ccc(O)c(O)c2)(C(=O)O)CC(O)C1O (stereo unspecified) [1,3-Dicaffeoylquinic acid] (10 µM)",0,0,0,0,0,0
CS(=O)(=O)c1ccc(-c2cnc(N)c(C(=O)Nc3ccccc3)n2)cc1 (10 µM),0,0,0,0,0,0
CS(=O)(=O)c1ccc(-c2noc(C(F)(F)F)c2-c2ccccc2)cc1 (10 µM),0,0,0,0,0,0
Cc1cc(O)c(C(C)C)cc1N=O [Poloxime] (10 µM),0,0,0,0,0,2
C[C@@H]1O[C@@H](O[C@H]2[C@H](Oc3cc(O)c4c(=O)cc(-c5ccc(O)cc5)oc4c3)O[C@H](CO)[C@@H](O)[C@@H]2O)[C@H](O)[C@H](O)[C@H]1O [Rhoifolin] (10 µM),0,0,0,0,0,0
Cc1cc2cc(Nc3ccnc(Nc4ccc5[nH]c(C)cc5c4)n3)ccc2[nH]1 (2.5 µM),0,0,0,0,0,0
O=C(Nc1ccc2[nH]nc(-c3ccncc3)c2c1)[C@@H]1CCN(CC(=O)N2CCN(c3ccc(-c4ncccn4)cc3)CC2)C1 (2.5 µM),0,0,0,0,0,0
CC(=O)N1CCN(c2cc(-c3cc(C(F)(F)F)c4c(N)ncnn34)ccc2C#N)C(=O)C1(C)C (10 µM),0,0,0,0,0,0
O=C(/C=C/c1ccc(O)c(O)c1)c1ccc(O[C@@H]2O[C@H](CO)[C@@H](O)[C@H](O)[C@H]2O)c(O)c1O [Marein] (10 µM),0,0,0,0,0,0

Structure (SMILES),number of time points (YES1),number of time points (ZAK),number of time points (ZAP70),number of time points (CDK4),number of time points (CDK7),number of time points (CDK9)
NCc1ccc(Nc2ncc(F)c(Nc3ccccc3)n2)cc1 (10 µM),0,0,0,0,0,0
O=C(NCCO)c1ccc2c(c1)nc(Nc1cccc(Cl)c1)c1ccncc12 [CK2 inhibitor 2] (10 µM),0,0,0,0,0,0
Nc1ncc(-c2cccc(N3CCNCC3)c2)cc1C(=O)Nc1ccncc1 [PKC-iota inhibitor 1] (10 µM),0,0,0,0,0,0
Cc1ccc(-c2c(C(=O)CF)n(CCCO)c3ncnc(N)c23)cc1 (10 µM),0,0,0,0,0,0
Nc1ncnc2c1c(-c1ccc(Oc3ccccc3)cc1)nn2C1CCCNC1 (racemic) (2.5 µM),0,0,0,0,0,0
C=CC(=O)Nc1cc2c(Nc3ccc(OCc4ccccn4)c(Cl)c3)ncnc2cc1OCCN1CCOCC1 (10 µM),0,0,0,0,4,0
CC1=C2C(=O)O[C@@H](c3ccoc3)[C@]2(C)CCC1 [Fraxinellone] (10 µM),0,0,0,0,0,0
C#CCN(C)C(=O)CCNc1nc(N2CCN(C(=O)C=C)CC2)c2cc(Cl)c(-c3c(O)cccc3F)c(F)c2n1 [ARS-1323-alkyne] (2.5 µM),0,0,0,0,0,0
COc1ccc(Cn2cc(C(=O)N=Nc3c(O)[nH]c4c(C)cccc34)nn2)cc1 [MARK4 inhibitor 1] (10 µM),0,0,0,0,0,0
CCn1c(=O)c(-c2ccc(-c3cncc(C)n3)cc2Cl)cc2cnc(NCCC3CCN(C)CC3)nc21 (10 µM),0,0,0,0,0,0
COc1cc([N+](=O)[O-])ccc1S(=O)(=O)N1C[C@@H](CN2CCN(c3ccccn3)CC2)[C@H](c2cccc(F)c2)C1 (relative stereo) (10 µM),0,0,0,0,0,0
Nc1ncnc2c1c(-c1ccc(Oc3ccccc3)cc1)nn2C1CCNCC1 [N-piperidine Ibrutinib (hydrochloride)] (10 µM),0,0,0,0,0,0
Nc1nccc(Oc2ccc(NC(=O)c3cn(COP(=O)(O)O)cc(-c4ccc(F)cc4)c3=O)cc2F)c1Cl (10 µM),0,0,0,0,3,0
O=C(NCCCNC(=O)Nc1cccc(C2=NCCN2)c1)Nc1cccc(C2=NCCN2)c1 [p32 Inhibitor M36] (10 µM),0,0,0,0,0,0
COc1cc2ncnc(Nc3cccc(Cl)c3)c2cc1OC (10 µM),0,0,0,0,0,0
CC(C)=CC[C@H](O)C1=CC(=O)c2c(O)ccc(O)c2C1=O [(-)-Alkannin] (2.5 µM),0,0,0,0,0,0
Cc1ccc(S(=O)(=O)Nc2ccccc2C=Nc2ccccc2NS(=O)(=O)c2ccc(C)cc2)cc1 (10 µM),0,0,0,0,0,0
C=CC(=O)Nc1cccc(C)c1Nc1ncc2cc(-c3c(Cl)c(OC)cc(OC)c3Cl)ccc2n1 (2.5 µM),0,0,0,0,0,0
Cc1cc(Nc2nc(N[C@@H](C)c3ccc(F)cc3)c(C#N)cc2F)n[nH]1 (10 µM),0,0,0,0,0,0
CC1CN(C(=O)Nc2ccc(Cl)c(Cl)c2)C(=Nc2ccc(F)cc2)S1 (stereo unspecified) (10 µM),0,0,0,0,0,0
CN(C)CCN(Cc1ccc(Cl)cc1)c1ccccn1 [Chloropyramine hydrochloride] (10 µM),0,0,0,0,0,0
c1cc2c(cc1O[C@H]1OC[C@H]3[C@@H]1CO[C@@H]3c1ccc3c(c1)OCO3)OCO2 [Sesamolin] (10 µM),0,0,0,0,0,0
C[C@@H]1C(=O)O[C@H](C)[C@H]1C[C@@H](O)[C@](C)(O)[C@H]1CC[C@@]2(O)C3=CC(=O)[C@@H]4C[C@@H](O)[C@@H](O)C[C@]4(C)[C@H]3CC[C@]12C [Cyasterone] (10 µM),0,0,0,0,0,0

# Three compounds picked at random from the list so far:
Structure (SMILES),number of time points (YES1),number of time points (ZAK),number of time points (ZAP70),number of time points (CDK4),number of time points (CDK7),number of time points (CDK9)
"O=C(/C=C/c1ccc(O)c(O)c1)OC1CC(OC(=O)/C=C/c2ccc(O)c(O)c2)(C(=O)O)CC(O)C1O (stereo unspecified) [1,3-Dicaffeoylquinic acid] (10 µM)",0,0,0,0,0,0
O=C(NCCO)c1ccc2c(c1)nc(Nc1cccc(Cl)c1)c1ccncc12 [CK2 inhibitor 2] (10 µM),0,0,0,0,0,0
Cc1ccc(S(=O)(=O)Nc2ccccc2C=Nc2ccccc2NS(=O)(=O)c2ccc(C)cc2)cc1 (10 µM),0,0,0,0,0,0

# Reference: the supplement of paper PMC12823440, “Inhibitors supercharge kinase turnover through native proteolytic circuits” (Nature, 2025)
